Source: patent publication US10640547B2, “Immunotherapy against melanoma and other cancers” (IMMATICS BIOTECHNOLOGIES GMBH, priority 2016, dated 2020)
For part of these data: Expression values are those of the mRNA of the gene that encodes the peptide; a gene is named only where it was looked up.

Experiments:
[1] = system: HLA molecules of melanoma, other tumor and normal tissue samples; assay: Identification and relative quantitation of tumor associated peptides presented on the cell surface (HLA immunoprecipitation, label-free LC-MS); design: species or system human; key to Peptide Presentation (presentation score): very highly over-presented on tumors compared to a panel of normal tissues (+++); highly over-presented on tumors compared to a panel of normal tissues (++); over-presented on tumors compared to a panel of normal tissues (+); conditions: for Peptide Presentation (presentation score): over-presentation on tumors compared to a panel of normal tissues; for Additional Entities (additional tumor types on which the peptide was found) / relevant organs/diseases (additional tumor types on which the peptide was found): over-presented on more than 5% of the measured tumor samples, or presented on more than 5% with ratio of geometric means tumor vs normal tissues larger than 3; for over-presentation in melanoma versus normal tissues: 18 melanoma vs panel of normal tissues, FIG. 1A-1C; for over-presentation in different cancer tissues: HLA-A*02 positive normal and tumor samples, FIG. 1E-1J
[2] = system: mRNA of source genes in melanoma and normal tissues; assay: Expression profiling of genes encoding the peptides (RNAseq); design: species or system human; key: very highly over-expressed in tumors compared to a panel of normal tissues (+++); highly over-expressed in tumors compared to a panel of normal tissues (++); over-expressed in tumors compared to a panel of normal tissues (+); conditions: over-expression in tumors compared to a panel of normal tissues

| Substance | Peptide Presentation (presentation score) [1] | relevant organs/diseases (additional tumor types on which the peptide was found) [1] | also measured |
| --- | --- | --- | --- |
| 12: peptide found in P2RX7 (gene looked up) (RLDDKTTNV; listed as Homo sapiens) [compound 12] | ++ |  | GeneExpression (expression score of source gene) [2]: ++ |
| 38: peptide found in PBK (gene looked up) (KLGFGTGVNVYL; listed as Homo sapiens) [compound 38] | +++ |  | GeneExpression (expression score of source gene) [2]: +++ |
| 42: peptide found in IL4I1 (gene looked up) (VLKADVVLL; listed as Homo sapiens) [compound 42] | +++ |  | GeneExpression (expression score of source gene) [2]: +++ |
| 50: peptide found in CCL8 (gene looked up) (HLDQIFQNL; listed as Homo sapiens) [compound 50] | +++ |  | GeneExpression (expression score of source gene) [2]: ++ |
| 55: peptide found in CDC45 (gene looked up) (NLDKLYHGL; listed as Homo sapiens) [compound 55] | +++ |  | GeneExpression (expression score of source gene) [2]: + |
| 126: peptide found in GPNMB (gene looked up) (SLIDFVVTC; listed as Homo sapiens) [compound 126] | + | RCC, PC, NHL, OC, Uterine Cancer | Additional Entities (additional tumor types on which the peptide was found) [1]: NSCLC, HCC, HNSCC; GeneExpression (expression score of source gene) [2]: ++ |
| 225 (VLFGAVITGA; listed as Homo sapiens) [compound 225] | + | SCLC, Brain Cancer, HCC, PC, CLL, NHL, AML, BRCA, Esophageal Cancer, Urinary bladder cancer, Uterine Cancer | Additional Entities (additional tumor types on which the peptide was found) [1]: HNSCC |
| 226 (VLNEYFHNV; listed as Homo sapiens) [compound 226] | + | SCLC, HCC, BRCA, Esophageal Cancer, Urinary bladder cancer, Uterine Cancer | Additional Entities (additional tumor types on which the peptide was found) [1]: NHL, HNSCC |
| 227 (FLLEQEKTQAL; listed as Homo sapiens) [compound 227] | + | PrC, CLL, NHL, BRCA, Esophageal Cancer, OC | Additional Entities (additional tumor types on which the peptide was found) [1]: HNSCC |
| 228 (FLNLFNHTL; listed as Homo sapiens) [compound 228] | + | CLL |  |
| 229 (LLEPFVHQV; listed as Homo sapiens) [compound 229] | ++ | CLL, NHL, Urinary bladder cancer, Uterine Cancer |  |
| 230 (HLDEARTLL; listed as Homo sapiens) [compound 230] | + | CLL, NHL, AML, Uterine Cancer |  |
| 231 (KMVGDVTGA; listed as Homo sapiens) [compound 231] | + |  |  |
| 232 (KILPDLNTV; listed as Homo sapiens) [compound 232] |  | Brain Cancer, Urinary bladder cancer | Additional Entities (additional tumor types on which the peptide was found) [1]: HCC |
| 233 (QLYNQIIKL; listed as Homo sapiens) [compound 233] | + | CLL, NHL |  |
| 234 (KVPEIEVTV; listed as Homo sapiens) [compound 234] |  | NHL, AML, Uterine Cancer | Additional Entities (additional tumor types on which the peptide was found) [1]: GC, CLL, BRCA, OC, Gallbladder Cancer, Bile Duct Cancer |
| 235 (ALADLQEAV; listed as Homo sapiens) [compound 235] | ++ | Brain Cancer, PrC, Uterine Cancer |  |
| 236 (GLDSGFHSV; listed as Homo sapiens) [compound 236] |  | PC, NHL, BRCA | Additional Entities (additional tumor types on which the peptide was found) [1]: CLL, AML |
| 237 (VLYNESLQL; listed as Homo sapiens) [compound 237] |  | NHL | Additional Entities (additional tumor types on which the peptide was found) [1]: CLL, AML |
| SEQ ID NO.:3 (VLFKDPVSV; listed as Homo sapiens) |  |  | over-presentation in melanoma versus normal tissues [1]: over-presentation |
| SEQ ID NO.: 1 (FLDVKELML; listed as Homo sapiens) |  |  | over-presentation in melanoma versus normal tissues [1]: over-presentation |
| SEQ ID NO.: 13 (IQSETTVTV; listed as Homo sapiens) |  |  | over-presentation in melanoma versus normal tissues [1]: over-presentation |
| SEQ ID NO.: 19 (VLAVLGAVVAV; listed as Homo sapiens) |  |  | over-presentation in different cancer tissues [1]: over-presentation |
| SEQ ID NO.: 24 (SLVAILHLL; listed as Homo sapiens) |  |  | over-presentation in different cancer tissues [1]: over-presentation |
| SEQ ID NO.: 118 (TMIEICEKL; listed as Homo sapiens) |  |  | over-presentation in different cancer tissues [1]: over-presentation |
| SEQ ID NO.: 120 (QLMEGKVVL; listed as Homo sapiens) |  |  | over-presentation in different cancer tissues [1]: over-presentation |
| SEQ ID NO.: 151 (FLGEPASYLYL; listed as Homo sapiens) |  |  | over-presentation in different cancer tissues [1]: over-presentation |
| SEQ ID NO.: 209 (SILDGLIHL; listed as Homo sapiens) |  |  | over-presentation in different cancer tissues [1]: over-presentation |
